# Assay results taken from PubChem BioAssay AID330 (DTP/NCI, 2004).
# The list is a part of this screen's results and no random one: it is rich in T/C values a quarter to a half above the control, in often repeated tests (any T/C) and in doses without a T/C. Further doses and runs are listed elsewhere. T/C: endpoint of the treated group in % of that of the vehicle group. Some doses have a count of surviving animals in place of a T/C: the source holds a T/C of zero for them, seemingly a mark for toxic or unscored doses. Some survivor counts are full or nearly so, which does not show that the dose was tolerated: the source hardly ever lists a survival T/C far under the control, and the zero likely stands for such cases as well. Survivors were counted at the toxicity check, usually on the fifth day, unless a day is given; later deaths do not show. Schedules are NCI's codes, read here as Q, the interval in days (D) or hours (H), X, the number of doses. Some entries hold several experiments; the results are listed from low to high. Where survival is the endpoint, the PubChem record calls one and a half times the control and up active, and a quarter to a half above the control has no call in these data; cut-offs in other NCI protocols can differ. Some T/C values are followed by the survivors on the day toxicity was checked, most often the fifth; without a count, all were alive then.
# System: P388 leukemia ip, CD2F1 mice, survival T/C
# Test: NCI In Vivo Anticancer Drug Screen. Data for tumor model P388 Leukemia (intraperitoneal) in CD2F1 (CDF1) mice
# Conditions: T/C endpoint: median survival time, higher T/C = longer survival
# [1] = dose: 25.0 mg/kg/injection, schedule: Q01DX009 (ip), vehicle: Klucel (hydroxypropylcellulose) (HPC)
# [2] = dose: 200.0 mg/kg/injection, schedule: Q01DX009 (ip), vehicle: Klucel (hydroxypropylcellulose) (HPC)
# [3] = dose: 50.0 mg/kg/injection, schedule: Q01DX009 (ip), vehicle: saline with Tween-80
# [4] = dose: 100.0 mg/kg/injection, schedule: Q04DX003 (ip), vehicle: saline with Tween-80
# [5] = dose: 200.0 mg/kg/injection, schedule: Q04DX003 (ip), vehicle: saline with Tween-80
# [6] = dose: 400.0 mg/kg/injection, schedule: Q04DX003 (ip), vehicle: saline with Tween-80
# [7] = dose: 6.25 mg/kg/injection, schedule: Q04DX003 (ip), vehicle: saline
# [8] = dose: 200.0 mg/kg/injection, schedule: Q01DX009 (ip), vehicle: saline with Tween-80
# [9] = dose: 25.0 mg/kg/injection, schedule: Q04DX003 (ip), vehicle: saline
compound,measurement,setting,value
CN(N=O)C(=O)NCCSSCCNC(=O)N(C)N=O,T/C,"dose: 20.0 mg/kg/injection, schedule: Q01DX009 (ip), vehicle: saline with Tween-80",136 % of control
same,T/C,"dose: 40.0 mg/kg/injection, schedule: Q04DX003 (ip), vehicle: saline with Tween-80",130 % of control
same,T/C,"dose: 52.8 mg/kg/injection, schedule: Q04DX003 (ip), vehicle: saline with Tween-80",131 % of control
same,survivor count,"dose: 80.0 mg/kg/injection, schedule: Q01DX009 (ip), vehicle: saline with Tween-80",6 of 6
same,T/C,"dose: 80.0 mg/kg/injection, schedule: Q04DX003 (ip), vehicle: saline with Tween-80",136 % of control
same,survivor count,"dose: 120.0 mg/kg/injection, schedule: Q04DX003 (ip), vehicle: saline with Tween-80",6 of 6
CC(C)NC(=O)c1ccc(CN(O)Cc2ccc(C(=O)NC(C)C)cc2)cc1,survivor count,"dose: 200.0 mg/kg/injection, schedule: Q01DX009 (ip), vehicle: other",6 of 6
NN1C(=O)C2C3C=CC(C4CC34)C2C1=O (configuration not stated),survivor count,[1],5 of 6
same,survivor count,"dose: 50.0 mg/kg/injection, schedule: Q01DX009 (ip), vehicle: Klucel (hydroxypropylcellulose) (HPC)",0 of 6
same,survivor count,"dose: 100.0 mg/kg/injection, schedule: Q01DX009 (ip), vehicle: Klucel (hydroxypropylcellulose) (HPC)",0 of 6
same,survivor count,[2],0 of 6
COC(=O)CCc1ccc(NP(=O)(N2CC2)N2CC2)cc1,T/C,[3],130 % of control
same,T/C,"dose: 50.0 mg/kg/injection, schedule: Q04DX003 (ip), vehicle: saline with Tween-80",140 % of control
same,T/C,[4],143 % of control
same,T/C,[5],145 % of control
same,survivor count,[6],6 of 6
CC[C@@]1(O)C[C@H](OC2CC(N(C)C)C(O)C(C)O2)c2c(cc3c(c2O)C(=O)c2c(O)ccc(O)c2C3=O)[C@H]1C(=O)OC (some centres not stated),T/C,"dose: 3.0 mg/kg/injection, schedule: Q01DX009 (ip), vehicle: distilled water + Tween-80",130 % of control
same,T/C,"dose: 6.0 mg/kg/injection, schedule: Q01DX009 (ip), vehicle: distilled water + Tween-80",130 % of control
same,T/C,"dose: 12.0 mg/kg/injection, schedule: Q01DX009 (ip), vehicle: distilled water + Tween-80",145 % of control
same,T/C,"dose: 12.5 mg/kg/injection, schedule: Q01DX009 (ip), vehicle: other",131 % of control
same,survivor count,"dose: 24.0 mg/kg/injection, schedule: Q01DX009 (ip), vehicle: distilled water + Tween-80",4 of 6
same,survivor count,"dose: 25.0 mg/kg/injection, schedule: Q01DX009 (ip), vehicle: other",0 of 6
Cn1c(=O)c2[nH]c(Cc3ccc4c(c3)OCO4)nc2n(C)c1=O,survivor count,"dose: 400.0 mg/kg/injection, schedule: Q01DX009 (ip), vehicle: Klucel (hydroxypropylcellulose) (HPC)",2 of 6
COc1ccc(CC2c3cc(OC)c(OC)c(OC)c3CC[N+]2(C)C)cc1Oc1ccc(CC2c3cc4c(c(OC)c3CC[N+]2(C)C)OCO4)cc1 (configuration not stated),survivor count,"dose: 6.25 mg/kg/injection, schedule: Q04DX003 (ip), vehicle: saline with Tween-80",0 of 6
same,survivor count,[7],3 of 6
same,survivor count,"dose: 12.5 mg/kg/injection, schedule: Q04DX003 (ip), vehicle: saline with Tween-80",0 of 6
same,survivor count,"dose: 25.0 mg/kg/injection, schedule: Q04DX003 (ip), vehicle: saline with Tween-80",0 of 6
same,survivor count,[4],0 of 6
same,survivor count,[5],0 of 6
same,survivor count,[6],0 of 6
COC1=CC(=O)C(OC)=C(OC)C1=O,T/C,[3],126 [5 of 6 alive] and 133 % of control
same,survivor count,"dose: 100.0 mg/kg/injection, schedule: Q01DX009 (ip), vehicle: saline with Tween-80",0 of 6
same,survivor count,[8],0 of 6
same,survivor count,"dose: 400.0 mg/kg/injection, schedule: Q01DX009 (ip), vehicle: saline with Tween-80",0 of 6
COC1=C(C)C(=O)C2=C(C1=O)[C@@H]1[C@@H]3Cc4c(OC(=O)CO)c(C)c(OC)c(O)c4[C@H](CNC(=O)C(C)=O)N3[C@@H](C#N)[C@H](C2)N1C,survivor count,"dose: 4.5 mg/kg/injection, schedule: Q01DX005 (ip), vehicle: Klucel (hydroxypropylcellulose) (HPC)",3 of 6
same,T/C,"dose: 5.0 mg/kg/injection, schedule: Q01DX005 (ip), vehicle: Klucel (hydroxypropylcellulose) (HPC)",130 % of control
same,survivor count,"dose: 9.0 mg/kg/injection, schedule: Q01DX005 (ip), vehicle: Klucel (hydroxypropylcellulose) (HPC)",0 of 6
same,survivor count,"dose: 9.38 mg/kg/injection, schedule: Q01DX005 (ip), vehicle: Klucel (hydroxypropylcellulose) (HPC)",2 of 6
same,survivor count,"dose: 18.75 mg/kg/injection, schedule: Q01DX005 (ip), vehicle: Klucel (hydroxypropylcellulose) (HPC)",1 of 6
same,survivor count,"dose: 37.5 mg/kg/injection, schedule: Q01DX005 (ip), vehicle: Klucel (hydroxypropylcellulose) (HPC)",0 of 6
same,survivor count,"dose: 75.0 mg/kg/injection, schedule: Q01DX005 (ip), vehicle: Klucel (hydroxypropylcellulose) (HPC)",0 of 6
CCCCCCC/C=C/C(=O)OC1C(OC2C(OC(CCCCCCC)CC(=O)OC(CCCCCCC)CC(=O)O)OC(C)C(O)C2O)OC(C)C(O)C1O (configuration not stated),survivor count,[2],1 of 6
Cc1coc2c1C(OC(=O)C(C)C)C1(C)C(C)CCC(O)C1C2=O (configuration not stated),survivor count,[1],5 of 6
COC(C(=O)C(O)C(C)O)C1CC2C=C3C=C(OC4CC(OC5CC(O)C(OC)C(C)O5)C(OC(C)=O)C(C)O4)C(C)C(=O)C3=C(O)C2=C(O)C1OC1CC(OC2CC(OC3CC(C)(O)C(OC(=O)C(C)C)C(C)O3)C(O)C(C)O2)C(O)C(C)O1 (configuration not stated),T/C,"dose: 2.0 micrograms/kg/injection, schedule: Q01DX010 (ip), vehicle: saline",140 % of control
same,T/C,"dose: 32.0 micrograms/kg/injection, schedule: Q01DX010 (ip), vehicle: saline",140 % of control
same,survivor count,"dose: 64.0 micrograms/kg/injection, schedule: Q01DX010 (ip), vehicle: saline",6 of 6
same,survivor count,"dose: 128.0 micrograms/kg/injection, schedule: Q01DX010 (ip), vehicle: saline",4 of 6
O=C1C=C[C@H](O)[C@@]2(CO)O[C@@H]12,T/C,"dose: 5.0 mg/kg/injection, schedule: Q04DX002 (ip), vehicle: saline with Tween-80",126 % of control
same,T/C,"dose: 5.0 mg/kg/injection, schedule: Q04DX002 (ip), vehicle: saline",130 % of control
same,T/C,"dose: 10.0 mg/kg/injection, schedule: Q04DX002 (ip), vehicle: saline with Tween-80",140 % of control
same,T/C,"dose: 10.0 mg/kg/injection, schedule: Q04DX002 (ip), vehicle: saline",132 % of control
same,T/C,"dose: 20.0 mg/kg/injection, schedule: Q04DX002 (ip), vehicle: saline",141 % of control [4 of 6 alive]
same,survivor count,"dose: 40.0 mg/kg/injection, schedule: Q04DX002 (ip), vehicle: saline",0 of 6
same,survivor count,"dose: 50.0 mg/kg/injection, schedule: Q04DX002 (ip), vehicle: saline with Tween-80",0 of 6
same,survivor count,"dose: 100.0 mg/kg/injection, schedule: Q04DX002 (ip), vehicle: saline with Tween-80",0 of 6
same,survivor count,"dose: 200.0 mg/kg/injection, schedule: Q04DX002 (ip), vehicle: saline with Tween-80",0 of 6
[Cl][Pt][Cl].[NH-]CCC[N-]CCCC[N-]CCC[NH-],T/C,[7],130 % of control
same,T/C,[9],129 % of control [5 of 6 alive]
same,survivor count,"dose: 50.0 mg/kg/injection, schedule: Q04DX003 (ip), vehicle: saline",0 of 6 and 2 of 6
same,survivor count,"dose: 100.0 mg/kg/injection, schedule: Q04DX003 (ip), vehicle: saline",1 of 6
same,survivor count,"dose: 200.0 mg/kg/injection, schedule: Q04DX003 (ip), vehicle: saline",0 of 6
O=NN(C(=O)NC1CCC(C(=O)O)CC1)C1CCC(C(=O)O)CC1 (configuration not stated),survivor count,"dose: 400.0 mg/kg/injection, schedule: Q01DX001 (ip), vehicle: distilled water + Tween-80",0 of 6
CC1CN1P(=O)(N1CC1C)N1CC1C (configuration not stated),T/C,[9],136 % of control
Cc1c2ccccc2c(C)c2c1cc[n+]1ccccc21,survivor count,"dose: 50.0 mg/kg/injection, schedule: Q04DX003 (ip), vehicle: other",1 of 3
same,survivor count,"dose: 100.0 mg/kg/injection, schedule: Q04DX003 (ip), vehicle: other",0 of 3
Cc1oc(-c2ccccc2)nc1C(N)=O,T/C,[8],133 % of control
SC1(S)CN2CCC1CC2,survivor count,"dose: 25.0 mg/kg/injection, schedule: Q01DX009 (ip), vehicle: saline",2 of 6
